Experimental data published in PubChem BioAssay AID248 (DTP/NCI, 2004).
The list shows only some results of the screen, not a fair sample: it is rich in T/C values a quarter to a half above the control, in often repeated tests (any T/C) and in doses without a T/C. Other doses and runs of a compound stand elsewhere. T/C: endpoint of the treated group in % of that of the vehicle group. Some entries give survivors of the animals treated and no T/C: the source holds a T/C of zero for them, seemingly a mark for toxic or unscored doses. Some doses without a T/C left all or most animals alive at the check, yet need not have been tolerated: survival well below the control is almost never listed, so the zero probably covers shortened survival too. Survivors were counted at the toxicity check, usually on the fifth day, unless a day is given; later deaths do not show. Schedules are NCI's codes, taken here to give the interval after Q, in days (D) or hours (H), and the number of doses after X. For survival time, the PubChem record calls one and a half times the control and up active, and a quarter to a half above the control has no call in these data; cut-offs in other NCI protocols can differ. Some entries hold several experiments; the values are given in rising order. Some schedule codes hold Z or #, which are not explained here. Some T/C values are followed by the survivors on the day toxicity was checked, most often the fifth; without a count, all were alive then.

Tested on: L1210 leukemia ip in BDF1 mice, survival T/C
Assay: NCI In Vivo Anticancer Drug Screen. Data for tumor model L1210 Leukemia (intraperitoneal) in B6D2F1 (BDF1) mice
Conditions: T/C endpoint: mean survival time, higher T/C = longer survival

## COc1cccc2c1C(=O)c1c(O)c3c(c(O)c1C2=O)C[C@@](O)(C(=O)CO)C[C@@H]3OC1CC(N)C(O)C(C)O1 (some centres undefined)
dose: 0.09 mg/kg/injection, schedule: Q01DX009 (ip), vehicle: saline
  T/C: 130 % of control
dose: 0.25 mg/kg/injection, schedule: Q01DX004 (ip), vehicle: clinical formulation
  T/C: 132 % of control
dose: 0.25 mg/kg/injection, schedule: Q01DX004 (ip), vehicle: saline
  T/C: 129 % of control
dose: 0.25 mg/kg/injection, schedule: Q01DX008 (ip), vehicle: saline
  T/C: 134 % of control [7 of 8 alive]
dose: 0.25 mg/kg/injection, schedule: Q03HX016 (ip), vehicle: water
  T/C: 146 % of control
dose: 0.25 mg/kg/injection, schedule: Q03HX024 (ip), vehicle: water
  T/C: 140 % of control
dose: 0.35 mg/kg/injection, schedule: Q01DX009 (ip), vehicle: saline
  T/C: 118, 125, 137, 158 % of control
dose: 0.37 mg/kg/injection, schedule: Q03HX008 (ip), vehicle: saline, evaluated on day 5
  T/C: 105 and 122 % of control
dose: 0.37 mg/kg/injection, schedule: Q03HX008 (ip), vehicle: saline, evaluated on day 60
  T/C: 105 and 122 % of control
dose: 0.39 mg/kg/injection, schedule: Q01DX009 (ip), vehicle: water
  T/C: 126 % of control
dose: 0.5 mg/kg/injection, schedule: Q01DX004 (ip), vehicle: clinical formulation
  T/C: 145 % of control
dose: 0.5 mg/kg/injection, schedule: Q01DX004 (ip), vehicle: saline
  T/C: 129 % of control
dose: 0.5 mg/kg/injection, schedule: Q01DX007 (ip), vehicle: water
  T/C: 129 % of control
dose: 0.5 mg/kg/injection, schedule: Q03HX008 (ip), vehicle: water
  T/C: 129 and 148 % of control
dose: 0.5 mg/kg/injection, schedule: Q06HX004 (ip), vehicle: water
  T/C: 134 % of control
dose: 0.53 mg/kg/injection, schedule: Q03HX008 (ip), vehicle: clinical formulation
  T/C: 145 % of control
dose: 0.65 mg/kg/injection, schedule: Q01DX009 (ip), vehicle: saline
  T/C: 143 % of control
dose: 0.7 mg/kg/injection, schedule: Q01DX009 (ip), vehicle: saline
  T/C: 114, 133, 137, 148 % of control
dose: 0.75 mg/kg/injection, schedule: Q01DX004 (ip), vehicle: saline
  T/C: 140 % of control
dose: 0.75 mg/kg/injection, schedule: Q03HX008 (ip), vehicle: saline, evaluated on day 5
  T/C: 104 and 144 % of control
dose: 0.75 mg/kg/injection, schedule: Q03HX008 (ip), vehicle: saline, evaluated on day 60
  T/C: 104 and 144 % of control
dose: 0.78 mg/kg/injection, schedule: Q01DX009 (ip), vehicle: water
  T/C: 147 % of control
dose: 0.8 mg/kg/injection, schedule: Q03HX008 (ip), vehicle: clinical formulation
  T/C: 144 % of control
dose: 1.0 mg/kg/injection, schedule: Q01DX001 (ip), vehicle: saline
  T/C: 125 % of control
dose: 1.0 mg/kg/injection, schedule: Q01DX003 (ip), vehicle: water
  T/C: 130 % of control
dose: 1.0 mg/kg/injection, schedule: Q01DX004 (ip), vehicle: saline
  T/C: 143 % of control
dose: 1.0 mg/kg/injection, schedule: Q01DX008 (ip), vehicle: saline
  T/C: 148 % of control
dose: 1.0 mg/kg/injection, schedule: Q02DX008 (ip), vehicle: clinical formulation
  T/C: 139 % of control
dose: 1.0 mg/kg/injection, schedule: Q03HX016 (ip), vehicle: water
  T/C: 143 % of control
dose: 1.0 mg/kg/injection, schedule: Q06HX004 (ip), vehicle: water
  T/C: 129 % of control
dose: 1.0 mg/kg/injection, schedule: Q## X Z (ip), vehicle: water
  T/C: 143 % of control
dose: 1.0 mg/kg/injection, schedule: Q## X Z (sc), vehicle: water
  T/C: 139 % of control
dose: 1.04 mg/kg/injection, schedule: Q04DX003 (ip), vehicle: saline
  T/C: 139 % of control
dose: 1.1 mg/kg/injection, schedule: Q04DX002 (ip), vehicle: saline
  T/C: 116, 117, 128, 129 % of control
dose: 1.2 mg/kg/injection, schedule: Q01DX004 (ip), vehicle: saline
  T/C: 141 % of control
dose: 1.2 mg/kg/injection, schedule: Q03HX008 (ip), vehicle: clinical formulation
  T/C: 145 % of control
dose: 1.25 mg/kg/injection, schedule: Q04DX003 (ip), vehicle: water
  T/C: 129 % of control
dose: 1.4 mg/kg/injection, schedule: Q01DX009 (ip), vehicle: saline
  T/C: 148, 175, 177, 189 % of control
dose: 1.5 mg/kg/injection, schedule: Q01DX001 (ip), vehicle: saline, evaluated on day 5
  T/C: 145 % of control
dose: 1.5 mg/kg/injection, schedule: Q01DX001 (ip), vehicle: saline, evaluated on day 60
  T/C: 145 % of control
dose: 1.5 mg/kg/injection, schedule: Q01DX004 (ip), vehicle: saline
  T/C: 140 % of control
dose: 1.5 mg/kg/injection, schedule: Q01DX015 (ip), vehicle: clinical formulation
  T/C: 132 % of control
dose: 1.5 mg/kg/injection, schedule: Q02DX008 (ip), vehicle: clinical formulation
  T/C: 139 % of control
dose: 1.5 mg/kg/injection, schedule: Q03HX008 (ip), vehicle: saline, evaluated on day 5
  T/C: 95 and 119 % of control
dose: 1.5 mg/kg/injection, schedule: Q03HX008 (ip), vehicle: saline, evaluated on day 60
  T/C: 95 [8 of 10 alive] and 119 % of control
dose: 1.5 mg/kg/injection, schedule: Q04DX004 (ip), vehicle: clinical formulation
  T/C: 129 % of control
dose: 1.56 mg/kg/injection, schedule: Q01DX009 (ip), vehicle: water
  T/C: 130 % of control
dose: 1.6 mg/kg/injection, schedule: Q01DX004 (ip), vehicle: saline
  T/C: 149 % of control
dose: 1.73 mg/kg/injection, schedule: Q04DX003 (ip), vehicle: saline
  T/C: 141 % of control
dose: 1.8 mg/kg/injection, schedule: Q01DX004 (ip), vehicle: saline
  T/C: 135 % of control
dose: 2.0 mg/kg/injection, schedule: Q01DX003 (ip), vehicle: water
  T/C: 138 % of control
dose: 2.0 mg/kg/injection, schedule: Q01DX004 (ip), vehicle: saline, evaluated on day 30
  T/C: 86, 98, 148, 156 % of control
dose: 2.0 mg/kg/injection, schedule: Q01DX004 (ip), vehicle: saline, evaluated on day 60
  T/C: 148 % of control
dose: 2.0 mg/kg/injection, schedule: Q03HX016 (ip), vehicle: water
  survivor count: 8 of 8
